Data as given in PubChem BioAssay AID638 (SRMLSC, 2007).
Screen size: about 1,300 compounds; about 65 (5%) were called active.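 Rule for the calls: active = growth inhibition reaching a set limit at one or more tested doses; inactive = the rest.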 This is one part of the list. Potency and affinity values are given separately.

Experiment: growth inhibition of wild-type E. coli, dose response, BW25113 wild type, OD615 (AID 638)
Conditions: at 100 µM (top of the series) unless noted
How it was run: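 assay system = wild-type Escherichia coli strain BW25113 growth | medium = Kanamycin-supplemented LB broth | measured by = optical density (absorbance) at 615 nm | timing = bacterial exposure to compound 20 h at 37 °C | doses = compound concentration series | measure = IC50 from 4-parameter logistic, bounds fixed 0–100% | controls = chloramphenicol 30 µM control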

Growth inhibition, inactive:
N#Cc1cn(Cc2ccccc2)c2ccccc12 6%
COC(=O)CSc1nc(N2CCCCC2)c2c(c1C#N)CCCC2 -13.1%
Cn1nc(-c2ccc(N3CCOCC3)c(NC(=O)COc3ccccc3)c2)c2ccccc2c1=O -11.5%
CSc1nc2ccc(NS(=O)(=O)c3ccc(Cl)s3)cc2s1 16.1%
CCOC(=O)C1CCN(c2ncnc3c2oc2ccc(Br)cc23)CC1 -3.27%
CC1=CC(C)(C)N(C(=O)c2ccc(F)cc2)c2cc3c(cc21)OCO3 -8.31%
N#Cc1c(N)oc(-c2ccc3c(c2)OCO3)c1-c1ccc2c(c1)OCO2 10.1%
COc1ccc(-n2c(COc3ccccc3)nnc2SCc2ccc(C#N)cc2)cc1 7.49%
Cc1ccc(C)c(Cn2c(CN(C)Cc3ccccc3)nc3c2c(=O)n(C)c(=O)n3C)c1 -10%
CC(C)Cc1cc(C(=O)Nc2cc(Br)ccc2O)no1 -6.03%
N=c1c2c(-c3ccccc3)c(-c3ccccc3)n(Cc3ccco3)c2ncn1Cc1ccco1 8.39%
CCCCn1nc(NC(=O)c2cccs2)c2cc3ccccc3nc21 2.32%
COC(=O)C1=C(C)N(C)C(C)=C(C(=O)OC)C1c1ccc(F)c(Br)c1 5.26%
Fc1ccc(Cn2nnnc2C(c2cccs2)N2CCCCCC2)cc1 (configuration not stated) -1.95%
Cc1ccc(-c2csc(N(CC3CCCO3)C(=O)c3ccco3)n2)cc1 (configuration not stated) -3.37%
CC1(C)COCN1S(=O)(=O)c1ccc(C(=O)Nc2nnc(-c3ccc(Cl)s3)o2)cc1 -1.23%
O=C(O)c1cc(Cl)c2ccccc2c1O 5.04%
COc1ccc(N(C2CSC2)S(=O)(=O)c2ccccc2)cc1 -6.81%
Cc1sc(NC(=O)c2ccco2)c(CN2CCN(c3ccccn3)CC2)c1C -12.8%
O=C(COn1nnc2ccc(C(F)(F)F)cc21)Nc1nnc(-c2ccccc2)o1 -3.92%
CCCCCCn1c(N2CCN(c3ccccc3)CC2)nc2c1c(=O)n(C)c(=O)n2C -13.4%
CCOC(=O)N1CCC(Nc2nc3ccccc3nc2NS(=O)(=O)c2ccc(Cl)cc2)CC1 5.37%
Cc1ccc(S(=O)(=O)N(Cc2ccc(F)cc2)Cc2ccco2)cc1 7.59%
CCSc1nnc(NC(=O)c2cccc(OCc3c(C)noc3C)c2)s1 6.64%
Cc1cccc(N2CCN(C(=O)c3cn(C)c(=O)c4c3c3ccccc3n4C)CC2)c1C -2.17%
CCN(CC)c1ccc(-c2nn3c(-c4n[nH]c5c4CCC5)nnc3s2)cc1 5.16%
OCCN1CCN(c2nc(-c3ccccc3)c3cc(Cl)ccc3n2)CC1 2.45%
Cc1ccccc1Cn1nc(C)c(NC(=O)c2noc3c2CC(C(C)(C)C)CC3)c1C (configuration not stated) -6.59%
N#Cc1c(/N=C/c2ccco2)oc(-c2ccccc2)c1-c1ccccc1 2.06%
O=C1CCCC2=C1C(c1cccs1)n1nc(SCc3ccccc3)nc1N2 (configuration not stated) 0.4%
CCc1cc2c(N3CCN(c4ccccc4)CC3)ncnc2s1 8.6%
c1ccc(-c2csc(N3CCN(c4ccccn4)CC3)n2)cc1 -6.86%
Cc1ccc2cc(CN(Cc3ccc(F)cc3)Cc3nnnn3C3CCCC3)c(=O)[nH]c2c1 -4.23%
Clc1ccc(Cn2ncc3c(NCc4ccco4)ncnc32)c(Cl)c1 13.6%
Cc1ccc(S(=O)(=O)Cn2nnnc2CN2CCCC3(CCCCC3)C2)cc1 -8.84%
COC(=O)c1cccc(-n2nnnc2SCC(=O)Nc2nc3c(s2)CCCC3)c1 -0.91%
COC(=O)c1sc(N2C(=O)C(O)=C(C(=O)c3ccc(C)o3)C2c2ccc(F)cc2)nc1C (configuration not stated) -4.88%
COc1ccc(Nc2nc(N3CCCC3)c3ccccc3n2)cc1 11.6%
CCOC(=O)c1c(NC(=O)CSc2nnc(C)c(=O)[nH]2)sc2c1CCC2 -1.04%
Cc1[nH]n2c(=O)c3c(nc2c1-c1ccc(Cl)cc1)CCC3 -6.61%
Cc1cccc2cc(CN(Cc3ccco3)C(=O)NC3CCCCC3)c(=O)[nH]c12 -1.82%
CCCCCn1c(N2CCC(Cc3ccccc3)CC2)nc2c1c(=O)[nH]c(=O)n2C -11.3%
Fc1cccc2sc(Nc3nnc(-c4ccco4)o3)nc12 -14%
CC1CCC2C(C1)c1sc(=O)[nH]c1SC2(C)C (configuration not stated) 15.2%
CN(C)c1ccc(C2C=C(c3ccc(Cl)cc3OC(F)F)Nc3ncnn32)cc1 (configuration not stated) -1.91%
Cc1ccccc1OCCCCc1c(C)n[nH]c1C 5.3%
O=C(c1ccc(COc2ccc3c(c2)CCC3)o1)N1CCN(c2ccccc2)CC1 2.85%
CCCCOc1ccc(S(=O)(=O)Nc2cc(OC)ccc2OC)cc1 -1.85%
CC(C)OCCCNc1ncnc2c1[nH]c1ccc(F)cc12 9.62%
CS(=O)c1nc(-c2ccc(Br)cc2)cc(-c2ccccc2)c1C#N (configuration not stated) -3.92%
O=C(Nc1nc2ccccc2s1)C1CCCN1S(=O)(=O)c1ccc(Cl)cc1 (configuration not stated) -7.08%
CCOc1ccccc1N1CCN(C(=O)Nc2ccc(F)c(Cl)c2)CC1 -9.1%
CCOC(=O)c1[nH]c2ccc(F)cc2c1NC(=O)CN1CCN(C/C=C/c2ccccc2)CC1 -5.2%
CN(c1ccccc1)c1nc(N2CCCC2)nc(-n2ccnc2)n1 5.65%
CC(C)Sc1nc(NCc2ccco2)c2c3c(sc2n1)COC(C)(C)C3 -9.23%
COc1ccccc1N1CCN(C(=O)c2oc3cc(C)c(C)cc3c2C)CC1 -0.05%
O=C(CN(Cc1ccc2c(c1)OCO2)C(=O)CSc1nc2ccccc2o1)NC1CCCCC1 -6.97%
Cc1ccc(NC(=O)N2CCC(c3nc4c(nnn4Cc4cccc(Cl)c4)c(=O)[nH]3)CC2)cc1 -0.39%
CCOC(=O)C1CCCN(c2ncnc3c2cnn3-c2ccc(Cl)cc2)C1 (configuration not stated) -11.7%
O=c1c2ccccc2n(Cc2ccc(F)cc2)c(=O)n1C1CCCC1 -11%
c1coc(CNc2nc(N3CCCCC3)nc3ccccc23)c1 19.5%
Cc1ccc2c(c1)[nH]c1c(N3CCN(Cc4ccccc4)CC3)ncnc12 4.5%
CCn1c2ccccc2c2cc(C3C(C#N)=C(N)Oc4n[nH]c(COC)c43)ccc21 (configuration not stated) 10.3%
COc1ccc(-c2csc(NCc3ccco3)n2)cc1C -5.93%
COc1ccc(C(=O)Nc2nc(-c3cccs3)cs2)cc1 5.17%
CC1CCCN(c2ccc(C(=O)NCCc3ccccc3)cn2)C1 (configuration not stated) -9.36%
Clc1ccc(OCCCc2nc(-c3cccnc3)no2)c(Cl)c1 14.3%
Brc1ccc(CSc2nnc(-c3ccccn3)n2Cc2ccco2)cc1 3.24%
CN(c1ccccc1)C(c1ccc(F)cc1)c1nnnn1C1CCCC1 (configuration not stated) -5.82%
CC(C)C[C@H](NC(=O)OC(C)(C)C)c1nnc(SCc2cccc(F)c2)o1 -2.46%
CCOc1ccc(C(=O)N2CCN(c3cccc(C)c3C)CC2)cc1 3.01%
N#CC1=C(SCC(=O)c2cc3ccccc3oc2=O)NC(=O)C(C#N)C12CCCC2 (configuration not stated) 14.3%
CCc1ccccc1N(C)C(=O)CCc1nc(-c2ccc(C)cc2)no1 -4.92%
CCCCOC(=O)CSc1nnc(-c2ccc(Cl)cc2Cl)o1 1.1%
CCOC(=O)c1cc2sc(C)cc2n1C(C)C(=O)OCC (configuration not stated) 4.08%
C=C(C)COc1ccc(-c2[nH]ncc2Oc2cccc(OC)c2)c(O)c1 14.1%
CCCn1c2ccccc2c2nc3ccccc3nc21 -4.27%
CCOC(=O)c1c(-c2ccccc2)nnn1-c1nc(OCC)nc(N2CCCCC2)n1 -1.79%
CC(C)c1ccc(-c2noc(C3CCCN(C(=O)c4ccc(F)cc4F)C3)n2)cc1 (configuration not stated) 6.32%
CCC1(C)Cc2ccccc2-c2nc3n(c(=O)c21)CCCCC3 (configuration not stated) -1.35%
CN(Cc1ccccc1)c1ncnc2c1cnn2-c1ccccc1 -7.57%
CC(O)c1c(OCc2ccccc2)ncnc1OCc1ccccc1 (configuration not stated) 13.2%
Cn1cccc1C(=O)Nc1nc(-c2ccccn2)cs1 15%
O=C(CSc1nnnn1C1CCCCC1)Nc1cccc(NC(=O)c2ccco2)c1 3.75%
O=S(=O)(c1ccccc1)c1nc(-c2ccco2)oc1N1CCCCCC1 4.36%
CCOC(=O)Cc1c(C)nc2c(-c3ccc(Cl)cc3)c[nH]n2c1=O -6.48%
CCCCCn1c(CN2CCN(c3cccc(Cl)c3)CC2)nc2c1c(=O)n(C)c(=O)n2C 9.09%
O=C(Nc1ccc(N2CCN(C(=O)c3ccco3)CC2)c(Cl)c1)c1cccs1 -1.45%
CCC(C)(C)n1nnnc1CN(Cc1ccc(Cl)cc1)Cc1ccco1 -6.72%
OCCN(CCO)c1nc(N2CCCCC2)c2nc(N(CCO)CCO)nc(N3CCCCC3)c2n1 -1.01%
O=C1c2ccccc2C(=O)N1CCC(c1ccc(F)cc1)c1ccco1 (configuration not stated) 1.8%
COc1ccc(-c2csc(N(CC3CCCO3)C(=O)c3ccco3)n2)cc1 (configuration not stated) 1.43%

Part of the list above in order of SMILES length, smallest number first:
Growth inhibition, inactive:
CCCCOC(=O)CSc1nnc(-c2ccc(Cl)cc2Cl)o1 1.1%
CN(c1ccccc1)c1nc(N2CCCC2)nc(-n2ccnc2)n1 5.65%
CCOC(=O)c1c(NC(=O)CSc2nnc(C)c(=O)[nH]2)sc2c1CCC2 -1.04%
